Data taken from publication PMC8224564.
These are yes or no findings as the source states them, for the method shown. In cells and extracts the contact can be indirect.

Amino acid sequences for entries named in this document (tags omitted). A change or cut given only in a name is not applied to a line headed by its entry. Residues count along the entry.
UniProt Q6U7R4: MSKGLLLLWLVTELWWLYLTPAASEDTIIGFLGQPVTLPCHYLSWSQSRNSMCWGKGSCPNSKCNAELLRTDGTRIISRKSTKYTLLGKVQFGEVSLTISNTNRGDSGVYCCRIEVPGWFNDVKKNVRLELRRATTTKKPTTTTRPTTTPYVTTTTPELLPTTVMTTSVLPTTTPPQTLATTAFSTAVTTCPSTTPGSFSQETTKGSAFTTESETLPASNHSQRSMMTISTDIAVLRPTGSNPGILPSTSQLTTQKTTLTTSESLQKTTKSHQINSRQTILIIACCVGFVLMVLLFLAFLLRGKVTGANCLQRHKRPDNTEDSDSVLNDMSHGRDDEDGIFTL
UniProt P29317, residues 24-976: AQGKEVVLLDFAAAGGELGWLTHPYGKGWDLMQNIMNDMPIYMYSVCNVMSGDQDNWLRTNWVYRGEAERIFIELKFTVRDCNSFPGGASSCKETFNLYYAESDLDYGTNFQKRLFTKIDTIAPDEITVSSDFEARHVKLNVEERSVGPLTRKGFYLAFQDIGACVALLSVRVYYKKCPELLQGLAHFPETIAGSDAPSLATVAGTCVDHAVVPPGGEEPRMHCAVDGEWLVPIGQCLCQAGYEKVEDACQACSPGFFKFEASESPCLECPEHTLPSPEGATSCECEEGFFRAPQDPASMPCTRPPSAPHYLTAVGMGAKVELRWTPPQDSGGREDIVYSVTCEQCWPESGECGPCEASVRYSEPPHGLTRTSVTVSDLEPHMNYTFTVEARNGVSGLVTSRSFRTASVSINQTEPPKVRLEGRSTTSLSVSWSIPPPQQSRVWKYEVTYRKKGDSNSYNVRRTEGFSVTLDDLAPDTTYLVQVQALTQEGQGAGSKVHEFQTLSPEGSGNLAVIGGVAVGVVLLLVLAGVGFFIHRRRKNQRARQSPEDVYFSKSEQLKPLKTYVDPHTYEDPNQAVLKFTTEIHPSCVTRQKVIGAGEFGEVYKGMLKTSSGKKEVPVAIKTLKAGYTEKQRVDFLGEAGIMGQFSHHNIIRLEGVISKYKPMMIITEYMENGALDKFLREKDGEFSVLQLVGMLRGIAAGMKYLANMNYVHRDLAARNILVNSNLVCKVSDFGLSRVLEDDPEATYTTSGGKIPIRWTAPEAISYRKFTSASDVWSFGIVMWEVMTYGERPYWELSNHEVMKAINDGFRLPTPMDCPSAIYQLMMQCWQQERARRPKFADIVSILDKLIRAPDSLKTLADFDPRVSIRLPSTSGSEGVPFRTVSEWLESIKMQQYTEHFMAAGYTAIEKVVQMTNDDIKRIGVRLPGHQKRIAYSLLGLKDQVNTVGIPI

Target: Tim-4^ΔIgV (UniProt Q6U7R4)
Test: co-IP; 293T cells co-transfected, lysates incubated with anti-HA antibody-conjugated agarose beads, 4 °C, 2 h; immunoblot

binding: no binding
Substance: EphA2 (from UniProt P29317 24-976) (receptor)
